Assay results from PubChem BioAssay AID504327 (National Center for Advancing Translational Sciences (NCATS), 2011).
In all, about 390,000 compounds went through this assay and about 820 (0.21%) were called active. This list was built around the results that the source calls inconclusive (neither active nor inactive); the mix of calls is not that of the screen. Calls come from the whole dose curve; as a rule, active = well fitted inhibition curve with a large enough effect; inconclusive = small, poorly fitted or top-dose-only effect, or another doubt; inactive = no such curve, though single readings can be large or run the other way. Potencies of inconclusive entries are doubtful fits and often do not repeat.

Sequences of proteins named here, by UniProt entry; tags and fusion partners are left off.
UniProt Q92830, whole entry, looked up: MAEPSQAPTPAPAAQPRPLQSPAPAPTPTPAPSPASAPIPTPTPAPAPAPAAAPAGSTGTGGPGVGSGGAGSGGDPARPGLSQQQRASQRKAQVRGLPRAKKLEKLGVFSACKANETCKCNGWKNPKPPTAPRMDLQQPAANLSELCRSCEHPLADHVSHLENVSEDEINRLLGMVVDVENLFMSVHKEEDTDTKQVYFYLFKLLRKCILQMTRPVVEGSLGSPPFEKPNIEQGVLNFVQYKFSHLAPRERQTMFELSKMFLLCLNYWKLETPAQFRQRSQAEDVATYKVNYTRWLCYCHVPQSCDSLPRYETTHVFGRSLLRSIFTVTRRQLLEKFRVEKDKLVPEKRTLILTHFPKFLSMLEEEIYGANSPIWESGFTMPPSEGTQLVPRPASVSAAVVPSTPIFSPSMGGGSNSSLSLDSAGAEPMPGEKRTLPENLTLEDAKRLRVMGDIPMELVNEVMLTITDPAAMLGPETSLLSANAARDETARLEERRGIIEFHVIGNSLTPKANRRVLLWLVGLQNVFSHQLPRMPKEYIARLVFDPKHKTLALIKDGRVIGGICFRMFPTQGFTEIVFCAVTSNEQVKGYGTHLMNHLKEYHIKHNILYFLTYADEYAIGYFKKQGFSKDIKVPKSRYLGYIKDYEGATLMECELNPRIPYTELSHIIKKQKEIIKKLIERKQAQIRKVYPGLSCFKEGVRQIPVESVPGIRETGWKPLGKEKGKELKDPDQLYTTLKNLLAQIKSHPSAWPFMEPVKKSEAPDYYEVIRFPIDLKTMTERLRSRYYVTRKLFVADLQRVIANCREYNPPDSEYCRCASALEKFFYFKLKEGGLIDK

target: Histone acetyltransferase KAT2A (Homo sapiens) (UniProt Q92830); assay: qHTS Assay for Inhibitors of GCN5L2; settings: GCN5L2 HAT assay, ThioGlo1 CoA-SH fluorescence; activity change, negative = inhibition: at 58.9 µM (top of the series) unless noted
Summary of the method: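 ThioGlo1-coupled HAT assay: 20nM GCN5L2, 70uM acetyl-CoA, 75uM H3(1-25) peptide, pH 7.5. Fluorescence read at 340/540nm at start and after 20 min at room temperature.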
% is set by controls: 0 for no effect and ±100 for the full control effect; potency is the fitted concentration of half-maximal effect.

SMILES | Potency | activity change, negative = inhibition
COc1ccc(C(C)=O)cc1CSCCC(=O)O | inconclusive: 6.31 µM [inhibitor, single point] | 
Cc1ccc(S(=O)(=O)c2nc(-c3ccco3)oc2SCC(=O)NCC2CCCO2)cc1 (configuration not stated) | inconclusive: 35.5 µM [inhibitor, single point] | 
COc1ccc(NC(=O)c2ccc(-c3ccc(-c4noc(C)n4)cc3C)cc2)cc1OCCN(C)C | inactive | 
C=C(C)C(=O)Nc1cccc(C2=NOC3(C2)C[C@H](C(N)=O)N(C(=O)c2ccccc2)C3)c1 (some centres not stated) |  | inactive: -1.5%
COc1ccc(-c2cn3cccnc3n2)cc1F | inconclusive: 25.1 µM [inhibitor, single point] | 
C/C(=N\NC(=O)c1cc2ccccc2cc1O)c1cc2ccccc2o1 | inconclusive: 31.6 µM [inhibitor, partial curve] | 
C=CCNc1nc(C(=O)OCC(=O)c2ccc(Cl)cc2)cs1 | inconclusive: 28.2 µM [inhibitor, single point] | 
CN(C)C(=O)c1ccc(-c2ccc3ncnc(NC4CCNCC4)c3c2)cc1 |  | inactive: -5.49%
O=C(Nc1ccccn1)c1sc2cc([N+](=O)[O-])ccc2c1Cl | inconclusive: 14.1 µM [inhibitor, partial curve, poor fit] | 
CCN1CCN(c2ncc(C(=O)Nc3c(F)cc(F)cc3Br)c3ccccc23)CC1 | inconclusive: 7.08 µM [inhibitor, single point] | 
CCOCCOC(=O)c1ccc(NC(=O)/C=C/c2ccc(OC)c(OC)c2)cc1 | inconclusive: 7.94 µM [inhibitor, partial curve, poor fit] | 
Cc1cccc(NC(=O)C2CCCN(c3ncnc4c3nc3n4CCCCC3)C2)n1 (configuration not stated) | inconclusive: 0.631 µM [inhibitor, single point] | 
CCCCN1Cc2c(nc3cc(-c4ccco4)[nH]n3c2=O)C1=O | inconclusive: 39.8 µM [inhibitor, single point] | 
c1ccc(-n2nnnc2Oc2cccc3cccnc23)cc1 | inconclusive: 6.31 µM [inhibitor, single point] | 
CC(C)OCCCNC(=O)c1cc(S(=O)(=O)N2CCc3ccccc32)cn1C | active: 0.794 µM | 
COc1cccc(C(=O)NCC2CCCN(C3CCCCC3)C2)c1OC (configuration not stated) | inconclusive: 0.708 µM [inhibitor, single point] | 
O=C(Nc1ccc2ccccc2c1)c1onc2c1CCCC2 | inconclusive: 39.8 µM [inhibitor, single point] | 
CC(=O)Nc1c(C)ccc(S(N)(=O)=O)c1C | inconclusive: 39.8 µM [inhibitor, single point] | 
Cc1ccc(S(=O)(=O)/N=C2/NC(=O)/C(=C\c3ccccc3)S2)cc1 | inconclusive: 20 µM [inhibitor, single point] | 
O=C(CN1C(=O)c2cccnc2Oc2ccc(Cl)cc21)Nc1ccc(F)cc1 | inconclusive: 39.8 µM [inhibitor, single point] | 
COc1ccc2cc3c(N)nn(C(=O)Cc4c[nH]c5ccccc45)c3nc2c1 | inconclusive: 39.8 µM [inhibitor, partial curve] | 
CC1=C(C(=O)Nc2ccc(CC(=O)NCc3ccc(OC(C)C)cc3)cc2)SCCO1 | inconclusive: 22.4 µM [inhibitor, partial curve, poor fit] | 
O=C(Nc1cccc(Cl)c1)c1c(NC(=O)C(F)(F)F)sc2c1CCCC2 | inconclusive: 31.6 µM [inhibitor, single point] | 

SMILES | Potency | activity change, negative = inhibition
Cc1ccc(Cl)cc1N1CCN(C(=O)CSc2nnc3n2C(C)(C)Cc2ccccc2-3)CC1 |  | inactive: -8.81%
CCOC(=O)c1cc(-c2ccc(F)cc2)n(CC(=O)N2CCCC2)c1C | inconclusive: 39.8 µM [inhibitor, single point] | 
Cc1ccc(CCNC(=O)c2cccc(NC3=NC4CS(=O)(=O)CC4S3)c2)cc1 (configuration not stated) | inconclusive: 7.08 µM [inhibitor, partial curve] | 
Cc1nc2c(C(=O)NCCc3ccc(Cl)cc3)c[nH]n2c(=O)c1Cc1ccc(Cl)cc1 | inconclusive: 28.2 µM [inhibitor, single point] | 
CC1Cc2ccccc2N1c1ncnc2c1nnn2Cc1ccccc1 (configuration not stated) | active: 22.4 µM | 
CC(C)CCn1c(=O)c2sccc2n2c(CCCC(=O)NC(C)C)nnc12 |  | inactive: -2.12%
COc1ccc(-n2ccnc(SCC(=O)NC3CCCCC3)c2=O)cc1 | inconclusive: 0.794 µM [inhibitor, full curve, poor fit] | 
CC(N)=O | inconclusive: 39.8 µM [inhibitor, single point] | 
O=C1CCN2C=Nc3cccc4ccc1c2c34 | inconclusive: 39.8 µM [inhibitor, single point] | 
O=c1c(-c2cccs2)nc2cnc(N3CCNCC3)nc2n1Cc1cccs1 | inconclusive: 31.6 µM [inhibitor, partial curve] | 
Cc1cc(=O)[nH]c2c(C)cc(S(=O)(=O)NCc3ccccc3)cc12 | inconclusive: 39.8 µM [inhibitor, single point] | 
COc1ccc(CCC(=O)NCc2ccco2)cc1 |  | inactive: -7.58%
O=C(Nc1ccccc1C(=O)Nc1ccccn1)c1ccccc1F | inconclusive: 8.91 µM [inhibitor, full curve, poor fit] | 
Cc1onc(-c2ccccc2)c1C(=O)N1CCCN(C(=O)c2c(-c3ccccc3)noc2C)CC1 | inconclusive: 35.5 µM [inhibitor, single point] | 
COc1cc(C2C=C(c3cccs3)Nc3ncnn32)cc(OC)c1OC (configuration not stated) | inconclusive: 39.8 µM [inhibitor, single point] | 
FC(F)(F)c1cccc(Cc2noc(CN3CCCC(OCc4ccccn4)C3)n2)c1 (configuration not stated) | inconclusive: 35.5 µM [inhibitor, single point] | 
CCOc1ncccc1C(=O)OCC(=O)Nc1ccc(C(N)=O)cc1 |  | inactive: 0.0458%
O=C(NCc1ccccn1)c1ccc(NS(=O)(=O)c2cccc(Cl)c2)cc1 | inconclusive: 2.51 µM [inhibitor, full curve, poor fit] | 
CCCCCCCCCCCCCCCCOCC(CO)OC(C)=O (configuration not stated) |  | inactive: -2.43%
COc1ccc(-c2noc(Cn3c(=O)c4ccccc4n(CC(=O)Nc4cccc(OC)c4)c3=O)n2)cc1 |  | inactive: -4.84%
O=C(O)C1=C[C@@H](c2ccc(F)cc2)C[C@@H](OCCCCO)O1 |  | inactive: 42.8%
COc1cccc(/C=N/n2c(=S)n(C)c3cc(C)c(C)cc32)c1OC | inconclusive: 31.6 µM [inhibitor, single point] | 
O=[N+]([O-])c1ccc(-c2ccc(/C=N/c3c(-c4ccco4)nc4ccccn34)o2)cc1 | inconclusive: 31.6 µM [inhibitor, single point] | 

3 compounds picked at random from those above, as already listed:
SMILES | Potency | activity change, negative = inhibition
CC(C)CCn1c(=O)c2sccc2n2c(CCCC(=O)NC(C)C)nnc12 |  | inactive: -2.12%
Cc1cc(=O)[nH]c2c(C)cc(S(=O)(=O)NCc3ccccc3)cc12 | inconclusive: 39.8 µM [inhibitor, single point] | 
FC(F)(F)c1cccc(Cc2noc(CN3CCCC(OCc4ccccn4)C3)n2)c1 (configuration not stated) | inconclusive: 35.5 µM [inhibitor, single point] | 

(further entries)

SMILES | Potency | activity change, negative = inhibition
CCOc1ccc(CCNC(=O)c2cnc3sc(N4CCC(C)CC4)nn3c2=O)cc1 |  | inactive: -27.1%
COC(=O)c1c(-c2cccs2)csc1NC(=O)COc1c(C)ccc(C)c1C | inconclusive: 28.2 µM [inhibitor, partial curve] | 
O=C1CCCN1CC(O)CS(=O)(=O)Cc1ccccc1Cl (configuration not stated) | inconclusive: 0.891 µM [inhibitor, single point] | 
CC1CCCCN1C(=O)C1CCCN(S(=O)(=O)c2cccc3nsnc23)C1 (configuration not stated) |  | inactive: -2.24%
CN(C)/C(CN1CCOCC1)=C1\N=C(c2ccccc2)OC1=O | inconclusive: 6.31 µM [inhibitor, single point] | 
Cc1cc(C(=O)COC(=O)c2cc(Cl)c(O)c(Cl)c2)c(C)n1C | inconclusive: 25.1 µM [inhibitor, partial curve] | 
Cc1c(CC(=O)O)c(=O)oc2c(C)c(OCc3c(F)cccc3Cl)ccc12 | inconclusive: 0.708 µM [inhibitor, single point] | 
Cc1ccc(NS(=O)(=O)c2ccc(C(=O)N3CCC3)cc2)cc1 | inconclusive: 39.8 µM [inhibitor, single point] | 
C/C(=N\NC(=O)c1nnn(-c2nonc2N)c1CN(C)c1ccccc1)c1ccccn1 | inconclusive: 0.708 µM [inhibitor, single point] | 
CN(C)CCN(C(=O)c1ccc(S(=O)(=O)N(C)CC2CCCO2)cc1)c1nc2cc3c(cc2s1)OCO3 (configuration not stated) | inconclusive: 39.8 µM [inhibitor, single point] | 
CC(C)(C)c1ccc(C(CC(=O)O)NC(=O)Cc2ccc(F)cc2)cc1 (configuration not stated) | inconclusive: 35.5 µM [inhibitor, single point] | 
N#Cc1nc(-c2cccs2)oc1NCC1CCCO1 (configuration not stated) | inconclusive: 39.8 µM [inhibitor, single point] | 
NC1=NC2(CCCC2)N=C(Nc2ccccc2)N1 | inconclusive: 25.1 µM [inhibitor, partial curve, poor fit] | 
Cc1ccc(S(=O)(=O)Nc2ccc(C(N)=O)cc2)cc1[N+](=O)[O-] | inconclusive: 7.08 µM [inhibitor, single point] | 
Cn1nccc1C(=O)N1CCN(c2ccccc2F)CC1 | inconclusive: 28.2 µM [inhibitor, partial curve] | 
COC(=O)c1cccc(NC(=O)CCNC(=O)c2ccco2)c1 |  | inactive: -0.498%
COC(=O)c1ccccc1S(=O)(=O)NCc1nc2nc(C)cc(C)n2n1 | inconclusive: 3.55 µM [inhibitor, single point] | 
CC(C)c1ccc(OCC(=O)Nc2cccc(C(=O)Nc3ccccc3C(=O)O)c2)cc1 |  | inactive: -10.2%
OCC1CCCN(C(=S)NCCc2ccccc2)C1 (configuration not stated) | inconclusive: 0.708 µM [inhibitor, single point] | 
O=C1CCc2cc(NS(=O)(=O)c3ccccc3)cc3c2N1CC3 | inconclusive: 3.55 µM [inhibitor, single point] | 
CC(C)N1C(=O)S/C(=C/c2ccc(Sc3nc4ccccc4[nH]3)o2)C1=O |  | inactive: -4.03%
